Data as given in patent publication US8933132B2, “Tricyclic substituted benzenesulfonamide piperazine derivatives as CAV2.2 calcium channel blockers” (Convergence Pharmaceuticals Limited, priority 2011, dated 2015).
Some results were stated once for a whole list of compounds, not compound by compound. For at least one compound, name, drawing or mass did not settle the structure.

By UniProt entry, the sequences of proteins in these tests, tags left out.
UniProt Q00975, whole entry: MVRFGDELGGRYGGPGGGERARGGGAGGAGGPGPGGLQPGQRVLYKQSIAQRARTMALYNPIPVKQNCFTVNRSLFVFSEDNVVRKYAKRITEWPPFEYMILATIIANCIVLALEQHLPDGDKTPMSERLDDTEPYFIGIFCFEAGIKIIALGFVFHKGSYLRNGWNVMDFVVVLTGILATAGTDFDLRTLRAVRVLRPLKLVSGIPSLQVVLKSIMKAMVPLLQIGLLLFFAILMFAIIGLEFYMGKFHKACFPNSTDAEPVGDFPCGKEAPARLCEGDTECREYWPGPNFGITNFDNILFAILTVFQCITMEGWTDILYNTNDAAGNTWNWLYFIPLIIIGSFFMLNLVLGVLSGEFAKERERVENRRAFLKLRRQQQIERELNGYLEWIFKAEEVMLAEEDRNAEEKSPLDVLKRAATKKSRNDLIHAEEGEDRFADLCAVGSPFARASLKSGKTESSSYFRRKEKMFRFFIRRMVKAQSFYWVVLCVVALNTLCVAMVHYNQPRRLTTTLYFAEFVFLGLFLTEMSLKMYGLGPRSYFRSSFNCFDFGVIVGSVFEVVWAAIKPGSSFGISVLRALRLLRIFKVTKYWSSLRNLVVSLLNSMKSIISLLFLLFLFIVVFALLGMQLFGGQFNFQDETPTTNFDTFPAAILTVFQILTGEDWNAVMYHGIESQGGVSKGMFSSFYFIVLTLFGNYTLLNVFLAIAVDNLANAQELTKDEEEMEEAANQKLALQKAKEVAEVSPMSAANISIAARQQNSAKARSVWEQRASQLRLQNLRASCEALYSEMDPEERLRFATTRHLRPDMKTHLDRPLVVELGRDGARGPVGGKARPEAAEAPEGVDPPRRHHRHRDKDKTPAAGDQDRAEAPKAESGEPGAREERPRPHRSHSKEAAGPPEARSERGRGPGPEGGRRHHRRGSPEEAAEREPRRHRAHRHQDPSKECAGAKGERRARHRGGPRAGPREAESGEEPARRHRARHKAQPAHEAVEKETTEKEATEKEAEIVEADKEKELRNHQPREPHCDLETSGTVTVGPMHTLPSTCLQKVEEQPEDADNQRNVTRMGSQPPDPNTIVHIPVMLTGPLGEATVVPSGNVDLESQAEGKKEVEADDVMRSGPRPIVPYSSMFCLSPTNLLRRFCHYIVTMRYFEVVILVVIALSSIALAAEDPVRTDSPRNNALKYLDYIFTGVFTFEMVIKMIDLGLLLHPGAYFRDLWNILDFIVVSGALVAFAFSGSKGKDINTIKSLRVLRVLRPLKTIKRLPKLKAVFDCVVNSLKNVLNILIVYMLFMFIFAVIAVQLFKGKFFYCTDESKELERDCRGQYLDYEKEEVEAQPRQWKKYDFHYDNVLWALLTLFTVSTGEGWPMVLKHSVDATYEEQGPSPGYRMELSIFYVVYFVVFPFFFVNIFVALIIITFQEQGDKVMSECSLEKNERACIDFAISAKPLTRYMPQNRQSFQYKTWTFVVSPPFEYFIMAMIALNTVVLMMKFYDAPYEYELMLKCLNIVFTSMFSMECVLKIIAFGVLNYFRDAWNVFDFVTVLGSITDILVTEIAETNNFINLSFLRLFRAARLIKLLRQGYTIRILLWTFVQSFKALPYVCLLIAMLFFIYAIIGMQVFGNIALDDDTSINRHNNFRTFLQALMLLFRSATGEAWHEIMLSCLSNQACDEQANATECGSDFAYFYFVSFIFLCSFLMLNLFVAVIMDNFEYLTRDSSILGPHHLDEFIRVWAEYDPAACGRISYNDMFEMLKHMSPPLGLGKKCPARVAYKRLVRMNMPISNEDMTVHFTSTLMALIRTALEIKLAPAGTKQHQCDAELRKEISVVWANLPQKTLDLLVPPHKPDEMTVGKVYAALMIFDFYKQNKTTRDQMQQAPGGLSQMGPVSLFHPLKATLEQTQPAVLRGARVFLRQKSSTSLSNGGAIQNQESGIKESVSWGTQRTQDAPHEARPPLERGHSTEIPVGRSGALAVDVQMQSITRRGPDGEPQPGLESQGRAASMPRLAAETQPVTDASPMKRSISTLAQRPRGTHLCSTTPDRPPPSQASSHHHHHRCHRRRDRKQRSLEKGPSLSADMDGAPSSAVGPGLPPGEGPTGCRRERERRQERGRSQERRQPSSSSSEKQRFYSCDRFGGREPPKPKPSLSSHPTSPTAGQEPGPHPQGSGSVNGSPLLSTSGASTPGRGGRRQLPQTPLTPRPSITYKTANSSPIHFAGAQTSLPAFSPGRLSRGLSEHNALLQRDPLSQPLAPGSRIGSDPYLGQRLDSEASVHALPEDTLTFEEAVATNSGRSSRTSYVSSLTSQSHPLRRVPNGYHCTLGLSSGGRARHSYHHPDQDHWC

Target: T1, hCav2.2 (Homo sapiens, UniProt Q00975)
T1 construct: expressed in transfected cells; plasmids pCIN5-hCav2.2, pCIH-hCav β3, pCIP-α2δ1
Assay: hCav2.2 assay (IonWorks planar array electrophysiology, stable HEK293 cell line)
Format: cell-based
Settings: concentration producing 30% use-dependent inhibition; 10th versus 1st depolarising pulse, 10 Hz; HEK293 cells expressing human Cav2.2 α1B/β3/α2δ1
Description: Compounds as defined in the first to third aspects may be tested for in vitro biological activity in the hCav2.2 assay in accordance with the following studies:
Stable cell lines expressing the human Cav2.2 α (α1B) subunit, along with the human β3 and α2δ1 auxiliary subunits were created following sequential transfection and selection of human embryonic kidney (HEK293) cells. HEK293 cells were cultured in Dulbecco's modified Eagles media/F12 media (Invitrogen, Cat #041-95750V) containing 10% fetal bovine serum, with added L-glutamine (2 mM; Invitrogen, Cat #25030-024) and non-essential amino acids (5%; Invitrogen, Cat #11140-035). Initially HEK293 cells were transfected with two plasmid vectors for expression of the hCav2.2 α subunit (pCIN5-hCav2.2 which carries a neomycin resistance marker) and the hCav β3 subunit (pCIH-hCav β3 which carries a hygromycin resistance marker). Clonal cell lines were isolated following selection in media supplemented with 0.4 mg ml^−1 Geneticin G418 (Invitrogen, Cat #10131-027) and 0.1 mg ml^−1 hygromycin (Invitrogen, Cat #10687-010). These clonal cell lines were assessed for Cav2.2 α/β3-mediated current expression using the IonWorks planar array electrophysiology technology (described below). A clonal line was identified that gave a reasonable level of functional Cav2.2 α/β3 current expression. This cell line was transfected with a plasmid vector for expression of the human α2δ1 subunit (pCIP-α2δ1 which carries a puromycin resistance marker) and clonal cell lines isolated following selection in media containing 0.62 μg ml^−1 puromycin (Sigma, Cat # P-7255), in addition to 0.4 mg ml^−1 Geneticin G418 and 0.1 mg ml^−1 hygromycin. Several cell lines were identified that gave robust levels of Cav2.2 at β3/α2δ1-mediated current expression and one of these was selected for compound profiling. Expression of all three subunits within this cell line was continuously maintained by the inclusion of G418 (0.4 mg ml^−1), hygromycin (0.1 mg ml^−1) and puromycin (0.62 μg ml^−1). Cells were maintained at 37° C. in a humidified environment containing 5% CO2 in air. Cells were liberated from the T175 culture flasks for passage and harvesting using TrpLE (Invitrogen, Cat #12604-013).
Cells were grown to 30-60% confluence in T175 flasks and maintained at 30° C. for 24 hrs prior to recording. Cells were lifted by removing the growth media, washing with Ca^2+ free PBS (Invitrogen, Cat #14190-094) and incubating with 3 ml of warmed (37° C.) TrpLE (Invitrogen, Cat #12604-013) for 6 minutes. Lifted cells were suspended in 10 ml of extracellular buffer. Cell suspension was then placed into a 15 ml tube and centrifuged for 2 minutes at 700 rpm. After centrifugation, the supernatant was removed and the cell pellet was resuspended in 4.5 ml of extracellular solution.
Currents were recorded at room temperature (21-23° C.) using the IonWorks planar array electrophysiology technology (Molecular Devices Corp.). Stimulation protocols and data acquisition were carried out using a microcomputer (Dell Pentium 4). In order to determine planar electrode hole resistances (Rp), a 10 mV, 160 ms potential difference was applied across each hole. These measurements were performed before cell addition. After cell addition a seal test was performed prior to antibiotic (amphotericin) circulation to achieve intracellular access. Leak subtraction was conducted in all experiments by applying a 160 ms hyperpolarizing (10 mV) prepulse 200 ms before the test pulses to measure leak conductance. Test pulses stepping from the holding potential (VH) of −90 mV to +10 mV were applied for 20 ms and repeated 10 times at a frequency of 10 Hz. In all experiments, the test pulse protocol was performed in the absence (pre-read) and presence (post-read) of a compound. Pre- and post-reads were separated by a compound addition followed by a 3-3.5 min incubation. […]

SMILES | use-dependent pUD30
Cc1ccc2c(n1)C1CN(S(=O)(=O)c3cccc(C#N)c3)CCN1C2=O (stereo not drawn) [Compound 3, 3-[(2-Methyl-5-oxo-7,8,10,10a-tetrahydropyrido[2′,3′:3,4]pyrrolo-[1,2-a]pyrazin-9(5H)-yl)sulfonyl]benzonitrile] | ≥ 4.5
Cc1ccc2c(n1)C1CN(S(=O)(=O)c3ccc(C#N)cc3C)CCN1C2=O (stereo not drawn) [Compound 5, 3-Methyl-4-[(2-methyl-5-oxo-7,8,10,10a-tetrahydropyrido[2′,3′:3,4]pyrrolo-[1,2-a]pyrazin-9(5H)-yl)sulfonyl]benzonitrile] | ≥ 4.5
Cc1ccc2c(n1)C1CN(S(=O)(=O)c3ccc(C(F)(F)F)cn3)CCN1C2=O (stereo not drawn) [Compound 13, 2-Methyl-9-{[5-(trifluoromethyl)-2-pyridinyl]sulfonyl}-8,9,10,10a-tetrahydropyrido[2′,3′:3,4]pyrrolo-[1,2-a]pyrazin-5(7H)-one] | ≥ 4.5
Cc1cccc(S(=O)(=O)N2CCN3C(=O)c4ccc(C)nc4C3C2)n1 (stereo not drawn) [Compound 15, 2-Methyl-9-[(6-methyl-2-pyridinyl)sulfonyl]-8,9,10,10a-tetrahydropyrido[2′,3′:3,4]pyrrolo-[1,2-a]pyrazin-5(7H)-one] | ≥ 4.5
CCOc1ccc(S(=O)(=O)N2CCN3C(=O)c4ccc(C)nc4[C@@H]3C2)cc1 [Compound 20, (10aS)-9-{[4-(Ethyloxy)phenyl]sulfonyl}-2-methyl-8,9,10,10a-tetrahydropyrido[2′,3′:3,4]pyrrolo[1,2-a]pyrazin-5(7H)-one] | ≥ 4.5
CCOc1ccc(S(=O)(=O)N2CCN3C(=O)c4ccc(C)nc4[C@H]3C2)cc1 [Compound 21, (10aR)-9-{[4-(Ethyloxy)phenyl]sulfonyl}-2-methyl-8,9,10,10a-tetrahydropyrido[2′,3′:3,4]pyrrolo[1,2-a]pyrazin-5(7H)-one] | ≥ 4.5
